Earlier results as cited in patent publication US20160022762A1, “Agent for Eliminating Multidrug Resistance” (priority 2008, published 2016).
Some of these results come from one statement about several compounds together. At least one structure is not confirmed: it was looked up by name or label, or the drawing left a doubt. Some ranges recur; such a range may be that of the whole group of compounds.

System: tumour cells
Conditions: calmoduline antagonists; cited from earlier work

Structure (SMILES): CN1CCN(CCCN2c3ccccc3Sc3ccc(C(F)(F)F)cc32)CC1 [trifluorperasine]
- concentrations decreasing resistance of tumour cells to chemotherapeutic agents: 5 to 50 µM

Structure (SMILES): CN(C)CCCN1c2ccccc2Sc2ccc(Cl)cc21 [chlorpromazine]
- concentrations decreasing resistance of tumour cells to chemotherapeutic agents: 5 to 50 µM

Structure (SMILES): CN1CCN(CCCN2c3ccccc3Sc3ccc(Cl)cc32)CC1 [prochlorperazine]
- concentrations decreasing resistance of tumour cells to chemotherapeutic agents: 5 to 50 µM
